According to the supplement of paper PMC10849652:
The list shows a part of the results.

Sequences of proteins named here, by UniProt entry; tags and fusion partners are left off. A change or cut given only in a name is not applied to a line headed by its entry.
UniProt Q14315, whole entry, looked up: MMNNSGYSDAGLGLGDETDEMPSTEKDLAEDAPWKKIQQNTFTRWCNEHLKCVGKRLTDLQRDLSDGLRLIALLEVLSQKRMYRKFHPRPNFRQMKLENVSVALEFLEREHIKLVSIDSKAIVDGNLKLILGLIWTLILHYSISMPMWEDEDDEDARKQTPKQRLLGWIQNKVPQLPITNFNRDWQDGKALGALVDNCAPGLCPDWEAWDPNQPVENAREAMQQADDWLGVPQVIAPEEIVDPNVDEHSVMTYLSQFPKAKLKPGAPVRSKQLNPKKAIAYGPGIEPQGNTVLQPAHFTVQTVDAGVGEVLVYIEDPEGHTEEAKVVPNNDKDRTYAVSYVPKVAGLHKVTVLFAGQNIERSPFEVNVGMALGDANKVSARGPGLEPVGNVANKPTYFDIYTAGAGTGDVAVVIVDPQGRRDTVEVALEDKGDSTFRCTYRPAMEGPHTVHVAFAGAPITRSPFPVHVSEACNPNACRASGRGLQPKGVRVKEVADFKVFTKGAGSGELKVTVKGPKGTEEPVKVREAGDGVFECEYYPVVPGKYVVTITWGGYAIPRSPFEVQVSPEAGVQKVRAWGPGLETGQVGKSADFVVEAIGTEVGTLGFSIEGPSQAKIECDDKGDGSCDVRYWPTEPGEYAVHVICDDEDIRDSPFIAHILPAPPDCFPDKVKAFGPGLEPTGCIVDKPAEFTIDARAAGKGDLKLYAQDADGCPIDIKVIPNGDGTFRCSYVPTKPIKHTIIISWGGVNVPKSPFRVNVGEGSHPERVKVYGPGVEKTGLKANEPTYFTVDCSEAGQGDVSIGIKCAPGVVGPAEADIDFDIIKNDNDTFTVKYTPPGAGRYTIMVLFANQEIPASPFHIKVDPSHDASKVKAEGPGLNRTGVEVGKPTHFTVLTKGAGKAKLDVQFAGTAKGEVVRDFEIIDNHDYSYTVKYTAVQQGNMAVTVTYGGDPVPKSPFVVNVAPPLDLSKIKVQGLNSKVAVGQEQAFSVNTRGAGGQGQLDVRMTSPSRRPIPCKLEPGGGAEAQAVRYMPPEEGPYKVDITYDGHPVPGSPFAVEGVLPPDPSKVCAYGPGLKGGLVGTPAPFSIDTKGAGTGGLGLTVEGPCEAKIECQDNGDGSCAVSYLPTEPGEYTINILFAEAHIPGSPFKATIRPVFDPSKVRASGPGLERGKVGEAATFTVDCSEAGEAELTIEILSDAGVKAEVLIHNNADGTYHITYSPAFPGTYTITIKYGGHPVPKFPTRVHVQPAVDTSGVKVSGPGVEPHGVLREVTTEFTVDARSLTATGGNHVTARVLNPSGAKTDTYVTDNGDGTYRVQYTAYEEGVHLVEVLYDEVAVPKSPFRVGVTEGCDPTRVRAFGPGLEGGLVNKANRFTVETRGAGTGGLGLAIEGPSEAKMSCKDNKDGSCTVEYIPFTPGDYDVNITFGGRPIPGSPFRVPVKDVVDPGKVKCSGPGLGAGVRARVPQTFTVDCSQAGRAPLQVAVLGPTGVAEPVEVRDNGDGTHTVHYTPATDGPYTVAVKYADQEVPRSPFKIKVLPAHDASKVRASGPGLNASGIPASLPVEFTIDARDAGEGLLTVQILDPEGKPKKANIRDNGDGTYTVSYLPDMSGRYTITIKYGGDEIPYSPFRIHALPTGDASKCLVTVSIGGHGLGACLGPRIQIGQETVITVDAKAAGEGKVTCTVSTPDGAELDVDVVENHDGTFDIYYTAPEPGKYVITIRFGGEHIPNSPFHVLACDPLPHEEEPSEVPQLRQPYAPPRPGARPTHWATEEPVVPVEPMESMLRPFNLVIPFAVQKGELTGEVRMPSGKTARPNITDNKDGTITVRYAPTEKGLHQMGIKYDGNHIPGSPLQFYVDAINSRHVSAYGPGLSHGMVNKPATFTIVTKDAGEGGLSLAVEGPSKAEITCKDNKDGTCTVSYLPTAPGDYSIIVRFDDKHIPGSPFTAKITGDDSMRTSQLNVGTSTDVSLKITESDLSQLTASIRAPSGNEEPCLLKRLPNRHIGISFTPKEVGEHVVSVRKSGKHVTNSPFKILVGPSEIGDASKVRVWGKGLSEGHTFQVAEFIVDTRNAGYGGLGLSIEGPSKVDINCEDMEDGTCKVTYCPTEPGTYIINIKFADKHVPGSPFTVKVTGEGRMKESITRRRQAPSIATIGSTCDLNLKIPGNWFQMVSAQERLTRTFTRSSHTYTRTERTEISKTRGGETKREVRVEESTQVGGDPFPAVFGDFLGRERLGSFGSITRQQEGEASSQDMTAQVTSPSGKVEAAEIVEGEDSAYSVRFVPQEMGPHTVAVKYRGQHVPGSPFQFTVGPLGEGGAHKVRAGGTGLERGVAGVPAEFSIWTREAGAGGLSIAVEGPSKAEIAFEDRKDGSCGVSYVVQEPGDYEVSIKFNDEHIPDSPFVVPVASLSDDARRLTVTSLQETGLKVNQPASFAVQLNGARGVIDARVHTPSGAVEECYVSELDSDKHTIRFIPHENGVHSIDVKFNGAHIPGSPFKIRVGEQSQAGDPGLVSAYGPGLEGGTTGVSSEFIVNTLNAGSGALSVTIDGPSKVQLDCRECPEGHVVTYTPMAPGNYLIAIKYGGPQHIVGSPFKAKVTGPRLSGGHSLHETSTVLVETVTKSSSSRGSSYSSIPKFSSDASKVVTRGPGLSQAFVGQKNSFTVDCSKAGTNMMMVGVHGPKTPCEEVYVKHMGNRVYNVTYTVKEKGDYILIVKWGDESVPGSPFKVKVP
UniProt Q8TF40: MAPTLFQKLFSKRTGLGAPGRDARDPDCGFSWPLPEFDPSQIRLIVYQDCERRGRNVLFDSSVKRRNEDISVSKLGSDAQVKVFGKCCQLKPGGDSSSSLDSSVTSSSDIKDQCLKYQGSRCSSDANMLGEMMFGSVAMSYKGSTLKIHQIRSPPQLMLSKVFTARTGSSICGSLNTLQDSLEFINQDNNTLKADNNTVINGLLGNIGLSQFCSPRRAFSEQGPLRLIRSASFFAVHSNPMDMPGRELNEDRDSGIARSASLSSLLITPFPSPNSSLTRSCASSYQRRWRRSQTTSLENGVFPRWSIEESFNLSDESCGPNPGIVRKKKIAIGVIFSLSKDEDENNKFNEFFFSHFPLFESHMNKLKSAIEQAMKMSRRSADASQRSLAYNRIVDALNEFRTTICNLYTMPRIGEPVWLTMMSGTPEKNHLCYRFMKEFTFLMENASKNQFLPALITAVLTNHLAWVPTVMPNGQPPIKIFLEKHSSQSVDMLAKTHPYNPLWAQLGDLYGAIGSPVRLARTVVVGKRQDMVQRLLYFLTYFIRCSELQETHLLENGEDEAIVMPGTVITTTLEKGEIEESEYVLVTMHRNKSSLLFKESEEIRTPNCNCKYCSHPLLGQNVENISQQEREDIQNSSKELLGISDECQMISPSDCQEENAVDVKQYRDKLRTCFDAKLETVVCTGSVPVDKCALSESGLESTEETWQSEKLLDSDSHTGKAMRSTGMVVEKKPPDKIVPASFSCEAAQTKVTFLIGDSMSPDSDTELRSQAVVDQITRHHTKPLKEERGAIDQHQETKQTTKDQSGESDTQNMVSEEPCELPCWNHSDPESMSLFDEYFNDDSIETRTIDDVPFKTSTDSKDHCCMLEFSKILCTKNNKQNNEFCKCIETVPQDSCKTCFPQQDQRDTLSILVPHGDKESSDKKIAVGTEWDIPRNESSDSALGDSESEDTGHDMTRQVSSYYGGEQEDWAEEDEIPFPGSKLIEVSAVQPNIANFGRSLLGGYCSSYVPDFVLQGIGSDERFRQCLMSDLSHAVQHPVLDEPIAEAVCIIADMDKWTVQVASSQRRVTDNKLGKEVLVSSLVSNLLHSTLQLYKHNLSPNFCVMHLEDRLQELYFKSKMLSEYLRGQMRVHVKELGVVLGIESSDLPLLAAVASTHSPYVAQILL
UniProt Q9NRD1: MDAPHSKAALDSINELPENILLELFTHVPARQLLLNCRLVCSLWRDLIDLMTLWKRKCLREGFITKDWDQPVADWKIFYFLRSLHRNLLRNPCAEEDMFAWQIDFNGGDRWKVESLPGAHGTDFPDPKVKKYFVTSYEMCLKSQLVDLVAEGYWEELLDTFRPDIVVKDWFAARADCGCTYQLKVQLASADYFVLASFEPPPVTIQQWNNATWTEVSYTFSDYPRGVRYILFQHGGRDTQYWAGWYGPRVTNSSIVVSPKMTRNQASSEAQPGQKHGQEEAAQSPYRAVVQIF
UniProt A6NHQ2: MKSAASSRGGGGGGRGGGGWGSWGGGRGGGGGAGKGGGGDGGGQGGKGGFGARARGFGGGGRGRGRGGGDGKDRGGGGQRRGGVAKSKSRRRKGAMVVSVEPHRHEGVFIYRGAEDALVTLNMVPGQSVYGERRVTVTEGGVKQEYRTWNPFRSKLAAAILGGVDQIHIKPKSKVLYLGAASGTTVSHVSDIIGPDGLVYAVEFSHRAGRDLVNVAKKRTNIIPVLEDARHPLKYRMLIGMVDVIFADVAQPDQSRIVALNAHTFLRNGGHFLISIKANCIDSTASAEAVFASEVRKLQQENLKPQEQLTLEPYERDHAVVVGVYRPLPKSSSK
UniProt Q0JRZ9: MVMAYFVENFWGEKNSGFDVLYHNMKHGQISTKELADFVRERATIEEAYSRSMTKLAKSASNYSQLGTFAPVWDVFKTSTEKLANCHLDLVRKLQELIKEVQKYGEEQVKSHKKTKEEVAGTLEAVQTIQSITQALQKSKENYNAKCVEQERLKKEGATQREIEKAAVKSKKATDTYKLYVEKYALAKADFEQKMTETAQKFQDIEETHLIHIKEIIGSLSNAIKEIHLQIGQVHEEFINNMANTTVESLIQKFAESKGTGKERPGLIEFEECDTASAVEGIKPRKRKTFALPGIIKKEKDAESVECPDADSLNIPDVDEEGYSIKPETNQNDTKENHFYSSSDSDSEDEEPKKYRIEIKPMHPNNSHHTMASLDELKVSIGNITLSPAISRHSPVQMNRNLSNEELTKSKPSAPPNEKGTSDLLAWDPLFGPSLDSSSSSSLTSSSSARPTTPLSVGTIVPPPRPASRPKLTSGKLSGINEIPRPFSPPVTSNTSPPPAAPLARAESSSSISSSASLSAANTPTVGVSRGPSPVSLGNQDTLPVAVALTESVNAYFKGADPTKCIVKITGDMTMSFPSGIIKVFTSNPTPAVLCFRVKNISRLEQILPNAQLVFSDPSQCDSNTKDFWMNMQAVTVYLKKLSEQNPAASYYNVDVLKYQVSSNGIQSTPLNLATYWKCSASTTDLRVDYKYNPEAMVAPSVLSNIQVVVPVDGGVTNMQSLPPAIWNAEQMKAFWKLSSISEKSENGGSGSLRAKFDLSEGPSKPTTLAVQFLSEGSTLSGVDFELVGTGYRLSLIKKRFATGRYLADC
UniProt Q9Y3D6: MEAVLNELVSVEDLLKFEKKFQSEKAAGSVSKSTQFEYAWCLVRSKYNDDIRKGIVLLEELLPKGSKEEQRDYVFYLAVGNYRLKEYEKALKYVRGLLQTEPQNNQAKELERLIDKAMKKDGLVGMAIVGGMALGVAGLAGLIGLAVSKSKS
UniProt Q9HA64: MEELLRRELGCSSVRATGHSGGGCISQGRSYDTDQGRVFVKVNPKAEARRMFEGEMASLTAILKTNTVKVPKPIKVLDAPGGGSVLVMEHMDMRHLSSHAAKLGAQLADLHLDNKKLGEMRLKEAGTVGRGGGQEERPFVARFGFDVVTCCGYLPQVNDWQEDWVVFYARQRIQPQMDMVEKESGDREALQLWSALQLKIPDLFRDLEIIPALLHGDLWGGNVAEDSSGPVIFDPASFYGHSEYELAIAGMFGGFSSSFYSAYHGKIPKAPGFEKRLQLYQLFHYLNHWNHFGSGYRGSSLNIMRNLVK
UniProt Q9UBU6: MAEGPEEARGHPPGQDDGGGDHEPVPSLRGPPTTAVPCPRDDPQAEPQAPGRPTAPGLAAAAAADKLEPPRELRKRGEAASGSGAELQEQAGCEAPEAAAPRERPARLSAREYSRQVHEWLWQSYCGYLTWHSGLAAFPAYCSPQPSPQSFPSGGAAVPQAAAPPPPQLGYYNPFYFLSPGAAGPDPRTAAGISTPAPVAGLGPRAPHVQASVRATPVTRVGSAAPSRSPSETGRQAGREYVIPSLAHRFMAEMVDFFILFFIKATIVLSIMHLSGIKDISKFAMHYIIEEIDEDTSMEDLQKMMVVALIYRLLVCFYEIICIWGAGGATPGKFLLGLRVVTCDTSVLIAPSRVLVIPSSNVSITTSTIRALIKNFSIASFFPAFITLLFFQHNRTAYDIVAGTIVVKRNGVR
UniProt P22087: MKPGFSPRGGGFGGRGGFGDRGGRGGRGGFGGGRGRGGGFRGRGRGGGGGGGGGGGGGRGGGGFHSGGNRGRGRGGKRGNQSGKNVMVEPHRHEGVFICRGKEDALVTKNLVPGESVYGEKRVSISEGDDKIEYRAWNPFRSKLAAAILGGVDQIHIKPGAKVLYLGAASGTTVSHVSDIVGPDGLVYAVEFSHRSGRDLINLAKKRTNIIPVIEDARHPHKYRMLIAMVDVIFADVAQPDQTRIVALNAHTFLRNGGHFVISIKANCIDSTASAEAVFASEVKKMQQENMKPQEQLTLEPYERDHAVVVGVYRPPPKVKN

Legend:
Experiment in all cases: log2 fold change, soluble protein after heating vs DMSO (PISA); higher = thermal stabilisation; K562 lysate, 10 uM; active = over 0.2 and 3.5 SD of the protein, either way, in both replicates (recomputed)
[1] = compound: C#Cc1cccc(Nc2ncnc3cc(OCCOC)c(OCCOC)cc23)c1 [erlotinib]
Procedure, shortened: (§1)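 Quantification was by TMTpro 16plex LC-MS/MS with equalised channel sums, applied to the supernatant after 21,000xg for 90 min. Samples were crude K562 extract at 1 mg/mL protein in PBS pH 7.4 with 1 mM MgCl2, treated with 10 μM compound for 30 min, heated for 3 min across 48°C-58°C, pooled and brought to 0.5% NP-40 at 4°C. Values are log-two fold changes in thermal stability relative to solvent controls, from duplicates.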

[2] = compound: C/C(=N\NC(=O)C1=CC(=CC=C1)S(=O)(=O)N2CCOCC2)/C3=C(C=CC(=C3)Cl)O
Procedure, shortened: as §1

[3] = compound: C1=CC(=CC=C1C2=NC3=C(N2)C=C(C=C3)C(=O)N)OC4=CC=C(C=C4)Cl
Procedure, shortened: as §1

[4] = compound: C1=CC2=C(C=CC(=C2)/C=C\3/C(=O)NC(=NCC4=CC=CS4)S3)N=C1
Procedure, shortened: as §1

[5] = compound: C1=CC2=NC=CN=C2C=C1/C=C/3\C(=O)NC(=O)S3
Procedure, shortened: as §1

[6] = compound: C1=CC=C(C=C1)C2=NC(=C(N2)C3=CC=NC=C3)C4=CC(=C(C=C4)Cl)O
Procedure, shortened: as §1

[7] = compound: C1=CC=C2C(=C1)C3=NNC4=CC=CC(=C43)C2=O
Procedure, shortened: as §1

[8] = compound: C1CCN(C1)C(=O)NC2=CC=CC(=C2)NC3=NC=C(C(=N3)NCCC4=CN=CN4)Br
Procedure, shortened: as §1

[9] = compound: C1CN(CCC1(CC2=CC=C(C=C2)Cl)N)C3=NC=NC4=C3C=CN4
Procedure, shortened: as §1

[10] = compound: C1COCCN1CCN2C3=CC=CC=C3N=C2NC(=O)C4=CC(=CC=C4)[N+](=O)[O-] [IRAK-1-4 Inhibitor I]
Procedure, shortened: as §1

[11] = compound: C=CC(=O)N1CCC[C@@H](n2nc(-c3ccc(Oc4ccccc4)cc3)c3c(N)ncnc32)C1 [ibrutinib]
Procedure, shortened: as §1

[12] = compound: CC(=O)c1cnc2ccc(-c3cc(Cl)c(O)c(Cl)c3)nc2c1N[C@H]1CC[C@H](CN(C)C)CC1
Procedure, shortened: as §1

[13] = compound: CC(C)(C)Cn1c(N)nc2ccc(-c3[nH]c(C(C)(C)C)nc3-c3ccc(F)cc3)nc21 [ralimetinib]
Procedure, shortened: as §1

[14] = compound: CC(C)(O)CC(=O)NCCn1ccc2ncnc(Nc3ccc(Oc4cccc(C(F)(F)F)c4)c(Cl)c3)c21
Procedure, shortened: as §1

[15] = compound: CC(C)C1=C2N=C(C=C(N2N=C1)NCC3=CC=CC=C3)NCCCCCCN
Procedure, shortened: as §1

[16] = compound: CC1=C(C(CC(=O)N1)C2=CC=C(C=C2)C(F)(F)F)C(=O)NC3=C(C=C4C(=C3)C=NN4)F
Procedure, shortened: as §1

[17] = compound: CC1=C(C2=C(C=C1)C(=O)C3=CC=CC=C3N2CCCN)C
Procedure, shortened: as §1

[18] = compound: CC1=C(C=C(C=C1)NC(=O)C2=CC(=CC=C2)C(C)(C)C#N)NC3=CC4=C(C=C3)N=CN(C4=O)C
Procedure, shortened: as §1

[19] = compound: CC1=C(C=C(C=C1)NC(=O)C2=CC(=CC=C2)N(C)C)NC(=O)C3=CC=C(C=C3)O
Procedure, shortened: as §1

[20] = compound: CC1=CC=C(C=C1)SC2=C3C=C(SC3=CN=C2)C(=O)N
Procedure, shortened: as §1

Measured: log2 fold change

FCSK (UniProt Q8N0W3)
inactive: [1] -0.008 | [2] -0.015 | [3] 0.028 | [4] 0.017 | [5] -0.007 | [6] -0.026 | [7] -0.019 | [8] -0.082 | [9] -0.012 | [10] 0.022 | [11] 0.056 | [12] -0.012 | [13] 0.019 | [14] -0.028 | [15] -0.026 | [16] -0.016 | [17] -0.008 | [18] 0.011 | [19] 0.003 | [20] -0.013

FLNC (UniProt Q14315)
inactive: [1] -0.009 | [2] -0.004 | [3] 0.019 | [4] 0.001 | [5] 0 | [6] 0 | [7] 0.019 | [8] 0.011 | [9] 0.016 | [10] 0.005 | [11] 0.002 | [12] -0.01 | [13] 0.003 | [14] -0.013 | [15] -0.01 | [16] -0.003 | [17] 0 | [18] 0.01 | [19] -0.015 | [20] -0.012

FNIP1 isoform 3 (UniProt Q8TF40)
inactive: [1] -0.108 | [2] -0.226 | [3] 0.007 | [4] 0.031 | [5] -0.041 | [6] 0.009 | [7] -0.017 | [8] 0.007 | [9] 0.012 | [10] -0.003 | [11] 0.071 | [12] -0.01 | [13] 0.071 | [14] -0.024 | [15] -0.038 | [16] 0.046 | [17] 0.038 | [18] -0.022 | [19] 0.033 | [20] -0.052

FAU (UniProt E9PR30)
inactive: [1] -0.026 | [2] -1.8 | [3] -0.059 | [4] -0.048 | [5] 0.016 | [6] -0.016 | [7] 0 | [8] 0.011 | [9] -0.021 | [10] 0.053 | [11] -0.018 | [12] 0.012 | [13] -0.01 | [14] -0.018 | [15] -0.122 | [16] -0.034 | [17] -0.015 | [18] 0.029 | [19] -0.003 | [20] 0.027

FBXL8 (UniProt Q96CD0)
inactive: [1] 0.043 | [2] -0.096 | [3] -0.023 | [4] -0.067 | [5] 0.025 | [6] -0.02 | [7] -0.054 | [8] -0.011 | [9] -0.124 | [10] 0.06 | [11] 0.046 | [12] -0.007 | [13] 0.015 | [14] -0.103 | [15] -0.025 | [16] 0.004 | [17] -0.044 | [18] 0.027 | [19] 0.003 | [20] -0.063

FBXO6 (UniProt Q9NRD1)
inactive: [1] -0.001 | [2] 0.074 | [3] 0.019 | [4] 0.041 | [5] 0.036 | [6] 0.024 | [7] 0.002 | [8] -0.05 | [9] 0.027 | [10] -0.02 | [11] 0.039 | [12] -0.005 | [13] 0.021 | [14] -0.02 | [15] -0.012 | [16] -0.008 | [17] 0.007 | [18] 0.001 | [19] -0.053 | [20] -0.001

FBLL1 (UniProt A6NHQ2)
inactive: [1] -0.003 | [2] -0.015 | [3] -0.008 | [4] 0.059 | [5] 0.075 | [6] -0.031 | [7] -0.031 | [8] 0.021 | [9] 0.022 | [10] -0.004 | [11] -0.042 | [12] -0.031 | [13] 0.029 | [14] -0.056 | [15] -0.014 | [16] 0.001 | [17] -0.121 | [18] 0.006 | [19] 0.049 | [20] -0.018

FCHO2 (UniProt Q0JRZ9)
inactive: [1] -0.017 | [2] -0.007 | [3] 0.031 | [4] 0.023 | [5] 0.001 | [6] 0.01 | [7] -0.008 | [8] -0.058 | [9] -0.008 | [10] -0.056 | [11] 0.052 | [12] -0.005 | [13] 0.04 | [14] -0.008 | [15] -0.004 | [16] 0.052 | [17] -0.082 | [18] -0.009 | [19] -0.003 | [20] 0.011

FIS1 (UniProt Q9Y3D6)
inactive: [1] -0.016 | [2] -0.025 | [3] 0.018 | [4] 0.01 | [5] -0.024 | [6] 0.01 | [7] 0.031 | [8] -0.029 | [9] -0.014 | [10] -0.036 | [11] 0.063 | [12] 0.01 | [13] 0.004 | [14] -0.006 | [15] -0.019 | [16] 0.026 | [17] -0.054 | [18] 0.06 | [19] -0.032 | [20] -0.019

Retrieved one by one from above (2):
FIS1 (UniProt Q9Y3D6)
inactive: [1] -0.016 | [2] -0.025 | [3] 0.018 | [4] 0.01 | [5] -0.024 | [6] 0.01 | [7] 0.031 | [8] -0.029 | [9] -0.014 | [10] -0.036 | [11] 0.063 | [12] 0.01 | [13] 0.004 | [14] -0.006 | [15] -0.019 | [16] 0.026 | [17] -0.054 | [18] 0.06 | [19] -0.032 | [20] -0.019

FBLL1 (UniProt A6NHQ2)
inactive: [1] -0.003 | [2] -0.015 | [3] -0.008 | [4] 0.059 | [5] 0.075 | [6] -0.031 | [7] -0.031 | [8] 0.021 | [9] 0.022 | [10] -0.004 | [11] -0.042 | [12] -0.031 | [13] 0.029 | [14] -0.056 | [15] -0.014 | [16] 0.001 | [17] -0.121 | [18] 0.006 | [19] 0.049 | [20] -0.018

(further entries)

FEM1B (UniProt Q9UK73)
inactive: [1] 0.032 | [2] -0.068 | [3] 0.008 | [4] -0.059 | [5] -0.024 | [6] -0.022 | [7] -0.005 | [8] -0.078 | [9] 0.036 | [10] 0.051 | [11] -0.071 | [12] 0.09 | [13] -0.002 | [14] -0.046 | [15] -0.025 | [16] 0.026 | [17] -0.057 | [18] 0.013 | [19] 0.064 | [20] 0.023

FIP1L1 (UniProt Q6UN15)
inactive: [1] 0.014 | [2] -0.1 | [3] 0.018 | [4] -0.016 | [5] -0.013 | [6] 0.001 | [7] 0.006 | [8] -0.049 | [9] 0.015 | [10] 0.009 | [11] 0.076 | [12] -0.006 | [13] -0.016 | [14] -0.039 | [15] 0.013 | [16] 0.018 | [17] 0.024 | [18] -0.19 | [19] 0.004 | [20] 0.021

FN3KRP (UniProt Q9HA64)
inactive: [1] -0.013 | [2] 0.084 | [3] -0.014 | [4] -0.003 | [5] -0.013 | [6] 0.009 | [7] 0.003 | [8] 0.025 | [9] 0.031 | [10] -0.002 | [11] 0.012 | [12] -0.009 | [13] -0.005 | [14] 0.006 | [15] -0.015 | [16] 0.018 | [17] -0.006 | [18] 0.022 | [19] -0.013 | [20] 0.1

FAM98A (UniProt Q8NCA5)
inactive: [1] -0.004 | [2] -0.026 | [3] 0.028 | [4] -0.048 | [5] -0.02 | [6] 0.01 | [7] 0.014 | [8] -0.05 | [9] -0.017 | [10] -0.04 | [11] -0.033 | [12] -0.019 | [13] 0.046 | [14] 0.008 | [15] 0.014 | [16] 0.04 | [17] -0.045 | [18] 0.008 | [19] 0.035 | [20] 0.029

FAM8A1 (UniProt Q9UBU6)
inactive: [1] -0.065 | [2] 0.165 | [3] -0.013 | [4] 0.042 | [5] 0.02 | [6] 0.006 | [7] -0.024 | [8] 0.01 | [9] -0.029 | [10] 0.07 | [11] 0.065 | [12] -0.022 | [13] -0.001 | [14] -0.032 | [15] 0.051 | [16] 0.088 | [17] -0.066 | [18] -0.083 | [19] -0.056 | [20] -0.061

FBXL12 (UniProt Q9NXK8)
inactive: [1] 0.017 | [2] 0.065 | [3] 0.005 | [4] 0.023 | [5] 0.033 | [6] -0.071 | [7] 0.017 | [8] -0.031 | [9] 0.058 | [10] 0.044 | [11] -0.034 | [12] 0.016 | [13] -0.014 | [14] -0.021 | [15] 0.031 | [16] -0.059 | [17] -0.05 | [18] 0.004 | [19] -0.003 | [20] 0.001

FBL (UniProt P22087)
inactive: [1] 0 | [2] -0.014 | [3] 0.002 | [4] 0.018 | [5] -0.022 | [6] -0.002 | [7] -0.006 | [8] -0.017 | [9] -0.035 | [10] -0.041 | [11] -0.018 | [12] -0.019 | [13] -0.003 | [14] -0.009 | [15] 0.041 | [16] -0.056 | [17] -0.048 | [18] 0.01 | [19] 0.053 | [20] -0.004
